These are yes or no findings as the source states them, for the method shown. Binding seen in cells or lysates may run through a third protein. Some binding calls cover weakened binding; strength is not graded here.
B1: Sun3 (protein, UniProt Q5SS91 1-320)
chain: MLTRSWKIILSTVFISTFLLVGLLNHQWLKETEFPQKPRQLYTVIAEYGSRLYNYQARLRMPKEQQELLKKESQTLENNFREILFLIEQIDVLKALLKDMKDGVHNHSLPVHRDAVQDQATTDVLDEEMSNLVHYVLKKFRGDQIQLADYALKSAGASVIEAGTSESYKNNKAKLYWHGIGFLNYEMPPDMILQPDVHPGKCWAFPGSQGHILIKLARKIIPTAVTMEHISEKVSPSGNISSAPKEFSVYGVMKKCEGEEIFLGQFIYNKMEATIQTFELQNEASESLLCVKLQILSNWGHPKYTCLYRFRVHGIPSDYT
B2: Lamin B3 (protein, UniProt P21619-2 1-474)
chain: MGESESMRGTGEGCGRDCPEAARPLMETVEGALPELRGRPLREYVKRRPRGLGKTPVEDPVKSEGAVGYPRTWNNHLRVPTREQEVRETRRRHERRLVEVDSSRQQEYDFKMAQALEDLRSQHDEQVRLYRVELEQTYQAKLDNAKLLSDQNDKAAHAAREELKEARMRVESLSYQLLGLQKQASAAENHIHELEEALAGERDKFRKMLDAKEQEMTEVRDAMQQQLAEYQELLDIKLALDMEISAYRKLLEGEEERLKLSPSPSSRITISRATSSSSSSSGVGMSVGQGRGKRRRLETEDTSGSPSRASRVSSGSRLAQQTVATGVVNIDEVDPEGRFVRLKNSSDKDQSLGNWRIKRQVLEGEDIAYKFTPKYVLRAGQTVTVWAAGAGATHSPPSTLVWKSQTNWGPGESFRTALVSADGEEVAVKAAKHSSVQGRENGEEEEEEEAEFGEEDLFHQQGDPRTTSRGCRLM
B3: Sun1 (protein, UniProt Q9D666 1-913)
chain: MDFSRLHTYTPPQCVPENTGYTYALSSSYSSDALDFETEHKLEPVFDSPRMSRRSLRLVTTASYSSGDSQAIDSHISTSRATPAKGRETRTVKQRRSASKPAFSINHLSGKGLSSSTSHDSSCSLRSATVLRHPVLDESLIREQTKVDHFWGLDDDGDLKGGNKAATQGNGELAAEVASSNGYTCRDCRMLSARTDALTAHSAIHGTTSRVYSRDRTLKPRGVSFYLDRTLWLAKSTSSSFASFIVQLFQVVLMKLNFETYKLKGYESRAYESQSYETKSHESEAHLGHCGRMTAGELSRVDGESLCDDCKGKKHLEIHTATHSQLPQPHRVAGAMGRLCIYTGDLLVQALRRTRAAGWSVAEAVWSVLWLAVSAPGKAASGTFWWLGSGWYQFVTLISWLNVFLLTRCLRNICKVFVLLLPLLLLLGAGVSLWGQGNFFSLLPVLNWTAMQPTQRVDDSKGMHRPGPLPPSPPPKVDHKASQWPQESDMGQKVASLSAQCHNHDERLAELTVLLQKLQIRVDQVDDGREGLSLWVKNVVGQHLQEMGTIEPPDAKTDFMTFHHDHEVRLSNLEDVLRKLTEKSEAIQKELEETKLKAGSRDEEQPLLDRVQHLELELNLLKSQLSDWQHLKTSCEQAGARIQETVQLMFSEDQQGGSLEWLLEKLSSRFVSKDELQVLLHDLELKLLQNITHHITVTGQAPTSEAIVSAVNQAGISGITEAQAHIIVNNALKLYSQDKTGMVDFALESGGGSILSTRCSETYETKTALLSLFGVPLWYFSQSPRVVIQPDIYPGNCWAFKGSQGYLVVRLSMKIYPTTFTMEHIPKTLSPTGNISSAPKDFAVYGLETEYQEEGQPLGRFTYDQEGDSLQMFHTLERPDQAFQIVELRVLSNWGHPEYTCLYRFRVHGEPIQ
B4: Lap2 (protein, UniProt Q61029 1-452)
chain: MPEFLEDPSVLTKDKLKSELVANNVTLPAGEQRKDVYVQLYLQHLTARNRPPLAAGANSKGPPDFSSDEEREPTPVLGSGASVGRGRGAVGRKATKKTDKPRLEDKDDLDVTELSNEELLDQLVRYGVNPGPIVGTTRKLYEKKLLKLREQGTESRSSTPLPTVSSSAENTRQNGSNDSDRYSDNDEDSKIELKLEKREPLKGRAKTPVTLKQRRTEHNQSYSQAGVTETEWTSGSSTGGPLQALTRESTRGSRRTPRKRVETSQHFRIDGAVISESTPIAETIKASSNESLVANRLTGNFKHASSILPITEFSDITRRTPKKPLTRAEVGEKTEERRVDRDILKEMFPYEASTPTGISASCRRPIKGAAGRPLELSDFRMEESFSSKYVPKYAPLADVKSEKTKKRRSVPMWIKMLLFALVAVFLFLVYQAMETNQGNPFTNFLQDTKISN

Target: T1, Sun4 (mouse (endogenous in testis cells)) (UniProt Q9JJF2)
T1 sequence: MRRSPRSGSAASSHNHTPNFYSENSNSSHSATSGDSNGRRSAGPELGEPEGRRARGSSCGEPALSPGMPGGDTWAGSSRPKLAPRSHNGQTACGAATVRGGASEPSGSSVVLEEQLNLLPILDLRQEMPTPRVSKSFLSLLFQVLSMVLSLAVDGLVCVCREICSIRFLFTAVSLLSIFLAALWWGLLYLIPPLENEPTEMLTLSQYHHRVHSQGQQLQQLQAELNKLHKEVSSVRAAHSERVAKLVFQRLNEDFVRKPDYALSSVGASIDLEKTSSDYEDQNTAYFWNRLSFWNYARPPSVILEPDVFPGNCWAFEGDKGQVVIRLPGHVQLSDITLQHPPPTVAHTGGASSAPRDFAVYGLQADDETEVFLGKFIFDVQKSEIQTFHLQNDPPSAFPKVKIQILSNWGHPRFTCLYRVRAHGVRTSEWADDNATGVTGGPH
Experiment: co-IP

| Binder | binding |
| --- | --- |
| B1 | binds |
| B2 | binds |
| B3 | no binding |
| B4 | no binding |

Source: paper doi:10.1101/2022.04.13.488151
